Reference: PMC7385628, “Molecular determinants for dsDNA translocation by the transcription-repair coupling and evolvability factor Mfd”
These are yes or no findings as the source states them, for the method shown.

Protein sequences, listed by entry. Tags and fused reporters are not part of them.
UniProt P30958: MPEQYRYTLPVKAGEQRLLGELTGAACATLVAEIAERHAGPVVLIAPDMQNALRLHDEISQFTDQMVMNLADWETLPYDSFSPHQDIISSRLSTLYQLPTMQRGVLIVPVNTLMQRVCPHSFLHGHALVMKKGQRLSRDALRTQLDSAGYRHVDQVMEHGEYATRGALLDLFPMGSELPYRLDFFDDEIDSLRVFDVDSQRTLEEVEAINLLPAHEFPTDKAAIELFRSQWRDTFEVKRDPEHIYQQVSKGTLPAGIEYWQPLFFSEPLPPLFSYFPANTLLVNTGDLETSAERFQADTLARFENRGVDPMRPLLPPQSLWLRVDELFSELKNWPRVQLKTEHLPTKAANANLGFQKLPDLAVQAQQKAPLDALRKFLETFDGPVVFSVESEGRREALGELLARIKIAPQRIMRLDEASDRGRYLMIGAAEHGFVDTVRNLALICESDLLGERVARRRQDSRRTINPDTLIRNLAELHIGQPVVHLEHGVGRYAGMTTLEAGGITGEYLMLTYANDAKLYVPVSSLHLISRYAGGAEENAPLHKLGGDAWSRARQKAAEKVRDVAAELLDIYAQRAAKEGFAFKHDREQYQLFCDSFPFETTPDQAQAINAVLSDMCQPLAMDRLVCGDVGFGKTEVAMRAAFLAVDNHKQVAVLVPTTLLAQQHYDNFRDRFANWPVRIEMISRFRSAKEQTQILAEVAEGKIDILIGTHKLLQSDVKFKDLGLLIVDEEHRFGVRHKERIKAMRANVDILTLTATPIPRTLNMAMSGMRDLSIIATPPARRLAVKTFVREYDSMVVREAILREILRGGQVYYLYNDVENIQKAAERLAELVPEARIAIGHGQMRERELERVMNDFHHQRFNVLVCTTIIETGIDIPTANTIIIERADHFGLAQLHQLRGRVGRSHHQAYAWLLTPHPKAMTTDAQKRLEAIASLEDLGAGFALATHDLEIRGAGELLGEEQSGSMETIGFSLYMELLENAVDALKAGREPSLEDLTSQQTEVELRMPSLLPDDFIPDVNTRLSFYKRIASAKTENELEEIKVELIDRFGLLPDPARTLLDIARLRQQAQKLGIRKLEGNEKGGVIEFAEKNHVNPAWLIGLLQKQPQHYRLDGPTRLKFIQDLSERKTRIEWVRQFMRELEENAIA

Molecular target: Escherichia coli Mfd (transcription-repair coupling factor) (Escherichia coli) (UniProt P30958)
Assay: SEC; gel filtration of purified Mfd (Supplementary Fig. 1a); nucleotide state and buffer of this run not given; both purified

**Q.** Which binding does the source give for “Escherichia coli Mfd (transcription-repair coupling factor) (from UniProt P30958 1-1148) (enzyme)” here?
**A.** no binding
